# Measurements as given in PubChem BioAssay AID588590 (National Center for Advancing Translational Sciences (NCATS), 2011).
# Sequences of proteins named here, by UniProt entry; tags and fusion partners are left off. A change or cut given only in a name is not applied to a line headed by its entry.
# UniProt Q9UNA4: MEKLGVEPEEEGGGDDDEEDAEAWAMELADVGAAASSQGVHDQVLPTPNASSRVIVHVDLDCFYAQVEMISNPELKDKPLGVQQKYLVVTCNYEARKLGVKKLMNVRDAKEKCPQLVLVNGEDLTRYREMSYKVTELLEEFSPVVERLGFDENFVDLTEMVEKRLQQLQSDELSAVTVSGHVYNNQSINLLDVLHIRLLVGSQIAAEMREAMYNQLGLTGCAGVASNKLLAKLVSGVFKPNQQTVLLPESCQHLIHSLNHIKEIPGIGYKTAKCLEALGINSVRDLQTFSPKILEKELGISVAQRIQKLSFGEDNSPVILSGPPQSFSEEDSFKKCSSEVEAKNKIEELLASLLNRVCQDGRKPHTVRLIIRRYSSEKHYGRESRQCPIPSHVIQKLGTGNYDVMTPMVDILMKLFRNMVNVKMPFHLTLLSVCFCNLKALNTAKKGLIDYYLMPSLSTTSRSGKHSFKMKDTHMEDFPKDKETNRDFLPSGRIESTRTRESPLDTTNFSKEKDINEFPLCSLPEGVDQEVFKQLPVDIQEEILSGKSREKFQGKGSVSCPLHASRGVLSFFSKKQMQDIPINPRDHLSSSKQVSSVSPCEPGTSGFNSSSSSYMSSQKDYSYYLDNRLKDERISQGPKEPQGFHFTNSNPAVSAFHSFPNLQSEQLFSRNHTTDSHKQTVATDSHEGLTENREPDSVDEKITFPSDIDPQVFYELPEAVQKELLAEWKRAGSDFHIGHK
# Screen size: about 390,000 compounds; about 4,000 (1%) were called active. Inconclusive results, whose numbers are uncertain, are shown with a selection of clear calls. Calls follow the shape of the dose curve; as a rule, active = well fitted inhibition curve with a large enough effect; inconclusive = small, poorly fitted or top-dose-only effect, or another doubt; inactive = no such curve, though single readings can be large or run the other way. Where the call is inconclusive, the potency comes from a doubtful curve fit.
# Target: DNA polymerase iota (Homo sapiens) (UniProt Q9UNA4)
# Test: qHTS for Inhibitors of Polymerase Iota
# Conditions: Pol iota fluorescent replication assay, 10 min; series mostly up to 115 µM; activity, negative = inhibition: at the top concentration
# How it was run: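 Pol iota at 10 nM preincubated 15 min with compounds at room temperature; reaction started with fluorescent substrate, 50 nM final. Fluorescence read kinetically at 0 and 10 min; buffer-only wells as negative control.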
# Potency is read from the fitted curve at half-maximal effect.
SMILES,Potency,"activity, negative = inhibition"
Fc1ccccc1Nc1nc2ccccc2n2nnnc12,"inconclusive: 35.5 µM [inhibitor, partial curve, poor fit]",–
Cc1ccc(S(=O)(=O)N2CC3(C)CN(S(=O)(=O)c4ccc(C)cc4)CC(C)(C2)C3)cc1,"inconclusive: 79.4 µM [inhibitor, partial curve]",–
CCOC(=O)c1c(N)sc(C(C)=O)c1C,"inconclusive: 39.8 µM [inhibitor, single point]",–
C=CCn1c(COc2ccc(Cl)cc2)nnc1SCc1ccc(C#N)cc1,–,inactive: -17.1%
O=C(NCC1CCCN1S(=O)(=O)c1ccccc1)c1cccc(Cl)c1 (configuration not stated),–,inactive: 17.8%
CC(C)OCCCN(CC(O)c1ccccc1)CC(O)c1ccccc1 (configuration not stated),"inconclusive: 89.1 µM [inhibitor, single point]",–
CCN(CC)CCn1c(NCc2cccc(OC)c2OC)nc2ccccc21,–,inactive: -5.77%
COc1ccc(C2/C=C\CN(Cc3ccccc3)C(C)C(=O)N2Cc2ccc(F)cc2)cc1 (configuration not stated),–,inactive: 15.1%
Nc1cc(=O)nc(SCC(=O)N(C2CCCCC2)C2CCCCC2)n1-c1ccccc1,"inconclusive: 31.6 µM [inhibitor, partial curve, poor fit]",–
O=C(COC(=O)CC(c1ccccc1)c1ccccc1)NCc1ccccc1,"inconclusive: 44.7 µM [inhibitor, single point]",–
CCOC(=O)c1cc(-c2ccc(C)cc2)n(CCC(=O)Nc2ccc(C(C)C)cc2)c1C,–,inactive: 28%
CN(C)S(=O)(=O)c1ccc(C(=O)NC2CC(=O)N(c3ccc4c(c3)OCCO4)C2)cc1 (configuration not stated),–,inactive: 13.8%
CCCCC(=Nc1ccc(N)cc1)C1=C(O)C(C(=O)OC)C(C)(C)CC1=O (configuration not stated),"inconclusive: 15.8 µM [inhibitor, partial curve, poor fit]",–
O=c1cc(CSc2nnc(COc3ccccc3Cl)o2)nc2sccn12,–,inactive: -7.59%
COc1cccc(N2CCN(C(=O)C3CCN(S(=O)(=O)c4c(C)noc4C)CC3)CC2)c1,"inconclusive: 89.1 µM [inhibitor, single point]",–
O=C(NN=C1CCCC1)c1ccccc1O,–,inactive: 84.6%
Cc1sc2nc3n(c(=O)c2c1C)CCCS3,–,inactive: -0.466%
O=C(Nc1ccc2nc(-c3cccs3)[nH]c2c1)c1cccs1,"inconclusive: 25.1 µM [inhibitor, partial curve, poor fit]",–
N#CSC(c1ccccc1)c1nc2ccccc2[nH]c1=O (configuration not stated),"inconclusive: 17.8 µM [inhibitor, partial curve, poor fit]",–
O=c1[nH]c2c(s1)C(c1ccc(O)cc1)C1C3CCC(C3)C1S2 (configuration not stated),–,inactive: 16.4%
O=C(O)c1ccc(/C=C/c2ccc3cccc(O)c3n2)cc1,"inconclusive: 15.8 µM [inhibitor, partial curve]",–
O=C(O)c1[nH]c2ccc(Cl)cc2c1CC(=O)N1CCN(c2ccccc2)CC1,–,inactive: -6.56%
Oc1ccc(Nc2nc3ccccc3nc2Nc2ccc(O)cc2)cc1,"inconclusive: 56.2 µM [inhibitor, partial curve, poor fit]",–

SMILES,Potency,"activity, negative = inhibition"
Cc1nnc(NC(=O)CCS(=O)(=O)c2ccccc2)s1,"inconclusive: 50.1 µM [inhibitor, partial curve, poor fit]",–
O=C(NC(NC(=S)Nc1ccc(Cl)cc1Cl)C(Cl)(Cl)Cl)c1cccc([N+](=O)[O-])c1 (configuration not stated),"inconclusive: 35.5 µM [inhibitor, partial curve, poor fit]",–
CNC(C)C#Cc1ccc2sc3cccc(OC)c3c(=O)c2c1 (configuration not stated),"inconclusive: 28.2 µM [inhibitor, full curve, poor fit]",–
CCc1ccccc1NC(=O)CCS(=O)(=O)c1ccc(Br)cc1,–,inactive: 0.0621%
O=C(/C=C/c1ccco1)c1ccc(NC(=O)C23CC4CC(CC(C4)C2)C3)cc1,"inconclusive: 44.7 µM [inhibitor, partial curve, poor fit]",–
CSc1ccc(CCNC(=O)CSc2ccsc2[N+](=O)[O-])cc1,"inconclusive: 35.5 µM [inhibitor, partial curve, poor fit]",–
COc1ccc(CNC(=O)COC(=O)C(CCSC)NC(=O)c2ccco2)cc1OC (configuration not stated),–,inactive: 34.9%
Nn1cnnc1N/N=C/c1ccccc1C(F)(F)F,"inconclusive: 2.82 µM [inhibitor, partial curve, poor fit]",–
CCOC(=O)c1sc(NC(=O)CSc2n[nH]c(-c3ccccc3)n2)c(C#N)c1C,–,inactive: -10.9%
C=CCn1c(SCC(C)=O)nc2scc(-c3ccco3)c2c1=O,"inconclusive: 20 µM [inhibitor, full curve, poor fit]",–
COc1cccc(/C=C/C(=O)OCCN2C(=O)c3ccccc3C2=O)c1,"inconclusive: 89.1 µM [inhibitor, single point]",–
O=C(c1ccco1)N(CCC(c1ccccc1)c1ccco1)Cc1ccc(F)cc1 (configuration not stated),"inconclusive: 44.7 µM [inhibitor, partial curve]",–
Cc1cc(=O)oc2c(CN3CCC(C)CC3)c(O)c(Cl)cc12,"inconclusive: 89.1 µM [inhibitor, partial curve, poor fit]",–
CCOc1ncccc1C(=O)Nc1ccc(F)cc1,"inconclusive: 89.1 µM [inhibitor, single point]",–
O=C(NCCc1cn2ccsc2n1)c1cccs1,"inconclusive: 3.98 µM [inhibitor, full curve, poor fit]",–
CCCNC(=O)C1CC2Cn3c(nc4ccccc43)C2N1C (configuration not stated),"inconclusive: 17.8 µM [inhibitor, partial curve]",–
Cc1ccc(CSC2=NS(=O)(=O)c3ccccc32)cc1,"inconclusive: 39.8 µM [inhibitor, partial curve, poor fit]",–
N#CC1=C(N)NC(=S)C(C(N)=O)C1c1ccc(Cl)cc1Cl (configuration not stated),"inconclusive: 17.8 µM [inhibitor, single point]",–
CCOC(=O)C1CCN(c2cc(C)nc3cc(-c4cccc(F)c4)nn23)CC1,"inconclusive: 70.8 µM [inhibitor, single point]",–
CCOc1ccc(CCNC(=O)Cn2ncc3c(=O)oc4ccc(C)cc4c32)cc1,–,inactive: 26.5%
COc1ccc(-n2c(=O)c3c4c(sc3n(CC(=O)Nc3cc(C)[nH]n3)c2=O)CCCC4)c(OC)c1,"inconclusive: 56.2 µM [inhibitor, partial curve, poor fit]",–
COc1cccc(N2CC(C(=O)Nc3nnc(SCCC4OCCO4)s3)CC2=O)c1 (configuration not stated),"inconclusive: 14.1 µM [inhibitor, full curve, poor fit]",–
CCN(C(=O)COC(=O)/C=C/c1ccco1)c1c(N)n(Cc2ccccc2)c(=O)[nH]c1=O,"inconclusive: 15.8 µM [inhibitor, full curve]",–

SMILES,Potency,"activity, negative = inhibition"
COc1ccc(-n2c(=O)c3ccc(C(=O)NCc4ccc(C)cc4)cc3n(CC(=O)Nc3ccc(F)cc3)c2=O)cc1,–,inactive: 13.7%
CCCSc1nnc(NC(=O)CSc2sc3c(O)cc(=O)[nH]c3c2C#N)s1,active: 8.91 µM,–
COc1cccc(NC(=O)NNC(=O)COc2ccc3ccccc3c2)c1,–,inactive: -14%
CC(Oc1ccccc1)C(=O)N[C@@H]1C(=O)N2[C@@H]1SC(C)(C)[C@@H]2C(=O)OCc1ccccc1 (some centres not stated),–,inactive: 4.62%
O=C(Nc1ccc(Cl)cc1)Nc1nnc(/C=C/c2ccccc2)s1,"inconclusive: 56.2 µM [inhibitor, partial curve, poor fit]",–
COc1ccc(/C=N\NC(=O)c2ccccc2F)cc1COc1ccc(F)cc1F,–,inactive: -20%
CCC/S(CC1CC1(Cl)Cl)=N\S(=O)(=O)c1ccc(C)cc1 (configuration not stated),"inconclusive: 89.1 µM [inhibitor, partial curve]",–
O=C(CC1CCCC1)Nc1ccc(Br)cc1,–,inactive: 48.8%
Cc1cc(S(=O)(=O)Nc2ccc(C(=O)N3CC(C)OC(C)C3)cc2)ccc1F (configuration not stated),"inconclusive: 79.4 µM [inhibitor, partial curve, poor fit]",–
COc1ccc(/C(C)=N/NC(=O)c2ccc(CSc3cccc4cccnc34)cc2)cc1OC,"inconclusive: 112 µM [inhibitor, single point]",–
Nc1ccccc1SC(C[N+](=O)[O-])c1ccccc1 (configuration not stated),"inconclusive: 15.8 µM [inhibitor, partial curve]",–
CCCCNC(=O)CSc1nnc(Cc2ccc(Cl)c(Cl)c2)c(=O)[nH]1,"inconclusive: 22.4 µM [inhibitor, full curve, poor fit]",–
COc1cc(OC)c(NC(=O)NC(C)c2c(-n3cccc3)sc(C)c2C)cc1Cl (configuration not stated),–,inactive: 31%
CN(C)c1nc(N)nc(/C(C#N)=C/C2CC3C=CC2C3)n1 (configuration not stated),"inconclusive: 39.8 µM [inhibitor, single point]",–
COCCOC(=O)C1=C(C)NC2=C(C(=O)CCC2)C1c1cc2c(cc1Br)OCO2 (configuration not stated),"inconclusive: 112 µM [inhibitor, single point]",–
O=C(c1ccco1)N1CCN(Cc2ccccc2Br)CC1,"inconclusive: 44.7 µM [inhibitor, single point]",–
CC(Oc1ccccc1)C(=O)Nc1oc(-c2ccco2)c(-c2ccco2)c1C#N (configuration not stated),"inconclusive: 15.8 µM [inhibitor, partial curve, poor fit]",–
O=S(=O)(c1ccc2c(c1)OCCO2)N1CCN(S(=O)(=O)c2ccco2)CC1,"inconclusive: 31.6 µM [inhibitor, partial curve, poor fit]",–
O=C(Cc1cccc([N+](=O)[O-])c1)NCc1nc2cccnc2n1Cc1ccc(F)cc1,"inconclusive: 63.1 µM [inhibitor, partial curve, poor fit]",–
CCOC(=O)c1c(N)sc2c1CCS(=O)(=O)C2,"inconclusive: 39.8 µM [inhibitor, single point]",–
Cc1ccc(C(=O)COC(=O)C(CC(C)C)NC(=O)C2CCC(C)CC2)cc1 (configuration not stated),–,inactive: -12.5%

# Look-ups from the list.
# In Potency, CCOC(=O)c1c(N)sc2c1CCS(=O)(=O)C2 reads inconclusive: 39.8 µM [inhibitor, single point]
# In Potency, Cc1cc(S(=O)(=O)Nc2ccc(C(=O)N3CC(C)OC(C)C3)cc2)ccc1F (configuration not stated) reads inconclusive: 79.4 µM [inhibitor, partial curve, poor fit]
# In Potency, O=C(c1ccco1)N1CCN(Cc2ccccc2Br)CC1 reads inconclusive: 44.7 µM [inhibitor, single point]
# In activity, negative = inhibition, CC(Oc1ccccc1)C(=O)N[C@@H]1C(=O)N2[C@@H]1SC(C)(C)[C@@H]2C(=O)OCc1ccccc1 (some centres not stated) reads inactive: 4.62%
